Results are given in words; binding and its absence hold for the method and conditions named. For some assays here: Binding calls can cover weak binding; strength is not graded here. For some assays here: Sequences can lack the tags named with a protein. For some assays here: In cells and extracts the contact can be indirect.

We go through six molecules from doi:10.1101/2024.11.20.624400.

The target in assay [1] is CathB6-GFP (CathB6 catalytic domain Arg61-Asn338 in pB7FWG2.0) (Myzus persicae). The assay is described as follows: FRET or BRET. In general terms: Bioluminescence resonance energy transfer reports proximity on the nanometre scale.
For assay [2], the target named is M. persicae CathB3 catalytic domain (Lys61-Asn340) in pDEST-GBKT7 (BD) (Myzus persicae). The assay is described as follows: two-hybrid.
Assay [3] addresses M. persicae CathB6 catalytic domain (Arg61-Asn338) in pDEST-GBKT7 (BD) (Myzus persicae). The assay is described as follows: two-hybrid.
The target of assay [4] is M. persicae CathB6^C114D catalytic domain mutant in pDEST-GBKT7 (BD) (Myzus persicae). The assay is described as follows: two-hybrid.
Assay [5] deals with M. persicae CathB9 catalytic domain (Glu61-Thr338) in pDEST-GBKT7 (BD) (Myzus persicae). The assay is described as follows: two-hybrid.
Assay [6] addresses CathB6^87-134 region (yeast two-hybrid fragment) (Myzus persicae). The assay is described as follows: two-hybrid.
In assay [7] the target is CathB6-GFP (CathB6 catalytic domain Arg61-Asn338 in pB7FWG2.0) (Myzus persicae). The assay is described as follows: co-IP.
The target of assay [8] is CathB6^C114D-GFP (catalytic cysteine mutant of the CathB6 catalytic domain in pB7FWG2.0) (Myzus persicae). The assay is described as follows: co-IP.

B1: VCS-mCherry (processing body scaffolding protein Varicose) (protein, UniProt Q9LTT8 1-1344)
chain: MASSPGNTNPHNTPPFDLGILFKPSSNPYPPPAASYPPPTGPFLHNQYDQQHYAPPGISAQPSPVTQQQQDVSSSSAATNLHPQRTLSYPTPPLNLQSPRSNHNPGTHILALLNNTNNGAPVANQEPSHQLPVVNHNEIARSFPGGSGPIRVPSCKLPKGRRLIGEHAVYDVDVRLQGEIQPQLEVTPITKYGSDPQLVVGRQIAVNKVYICYGLKGGNIRVLNINTALRSLFRGHSQRVTDMAFFAEDVDMLASVSLDGKVFVWKISEGSEGEDQPQITGKIVLALQILGEEDTKHPRVCWHCHKQEILVVSIGKHVLRIDTTKVGRGEVFSAEAPLQCPLDKLIDGVQIVGKHDGEVTDLSMCQWMTTRLVSSSVDGTIKIWQDRKAQPLVVLRPHDGHPVSSATFVTSPERPDHIILITGGPLNREMKIWVSAGEEGWLLPADAESWRCTQTLDLKSSTEPRAEEAFFNQVIALSEAGLLLLANAKRNALYAVHLDYGSSPVGTRMDYLSEFTVTMPILSFIGTNDPPEEPIVKVYCVQTLAIQQYTLDLCLCLPPPIENMGLEKSDSSVSREANLVEGMSEPSGLKPTDLPSVDSVPKPSIIVNRSESANKLSFPSAEATSQAIVPPNGEPKTSGLPSQTSGAGSAYATLPQLPLSPRLSSKLSGYHTPVEAIEPVIPHHELGGKTPSADYSVDRQMDAVGERNLDVSSVEEISRSKDSNVTPDDDVSGMRSPSAFFKHPTHLVTPSEILMGVSSAEASITTEDRRDRDANIQDVNNDPRDTEVEVKEISEARSTQNGEINDHDETENCTSENREKVFCSQVSNLSTEMARDCYPSTEGTFIPGESKAYGQPIKAGDESGVDSRGGPAKLLKGKKQKAKNSQGPGLSSTSSNVANLADSFNEQSQSLSHPMTDLLPQLLAMQETMNQVMASQKEMQRQLSNAATGPIGKESKRLEVALGRMIEKSSKSNADALWARIQEETVKNEKALRDHAQQIVNATTNFMSKELNAMFEKTIKKELAAIGPALARSVVPVIEKTVSSAITESFQRGIGDKAVNQLDKSVNIKLEATVARQIQAQFQTSGKQALQEGLRSSVESSVIPSFEKACKAMFDQIDSAFQKGIAEHTNAAQQRFDSGHSQLAHTLKESITSASSVAQALSRELAETQRNLLALAAAGANSGGSNSLVTQLSGGPLGALLEKVEAPMDPTTELSRLISERKYEESFTSALQRSDVSIVSWLCSQVDLRGLLAMNPLPLSQGVLLSLLQQLACDISKDTSRKLAWMTDVVAAINPSDQMIAVHARPIFEQVYQILHHHRNAPGSDVSAIRLIMHVINSMLMGCK
Take B1: the binding result in assay [1] was “no binding”.

B2: A. thaliana PAD4, full length, in pDEST-GADT7 (AD) (protein, UniProt Q9S745 1-541)
chain: MDDCRFETSELQASVMISTPLFTDSWSSCNTANCNGSIKIHDIAGITYVAIPAVSMIQLGNLVGLPVTGDVLFPGLSSDEPLPMVDAAILKLFLQLKIKEGLELELLGKKLVVITGHSTGGALAAFTALWLLSQSSPPSFRVFCITFGSPLLGNQSLSTSISRSRLAHNFCHVVSIHDLVPRSSNEQFWPFGTYLFCSDKGGVCLDNAGSVRLMFNILNTTATQNTEEHQRYGHYVFTLSHMFLKSRSFLGGSIPDNSYQAGVALAVEALGFSNDDTSGVLVKECIETATRIVRAPILRSAELANELASVLPARLEIQWYKDRCDASEEQLGYYDFFKRYSLKRDFKVNMSRIRLAKFWDTVIKMVETNELPFDFHLGKKWIYASQFYQLLAEPLDIANFYKNRDIKTGGHYLEGNRPKRYEVIDKWQKGVKVPEECVRSRYASTTQDTCFWAKLEQAKEWLDEARKESSDPQRRSLLREKIVPFESYANTLVTKKEVSLDVKAKNSSYSVWEANLKEFKCKMGYENEIEMVVDESDAMET
On to B2, for which the binding result in assay [2], in assay [3], in assay [4] and in assay [5] was “no binding” in each case.

B3: A. thaliana SAG101, full length, in pDEST-GADT7 (AD) (protein, UniProt Q4F883 1-537)
chain: MESSSSLKGSALGKLVVTSGLLHSSWSKILEIHNPPYSNHDPGLQVSKKKKDSGLEFQIHREEKFTLVVFSAPPICRSSSSDSTLLHVKDKENPFPFLCSENNPSFSLHTPAFNLFTSASTSLTYLKSELLQTLKSEKPVIITGAALGGSVASLYTLWLLETIEPTLKRPLCITFGSPLIGDASLQQILENSVRNSCFLHVVSAQTRIKMDFFKPFGTFLICFDSGCVCIEDHVAVTELLNGVHDSGLVDYSQVLNRLDQSMLSLADSRLIPEDVIKGIEKRAEMKNLRFDMMFKKLNDMKISMAYIEWYKKKCKEVKIGYYDRFKTQLAFPSKEFDINIKNHHKSELNRFWKSVVEEVERRPQSDASILKRRFLFSGNNYRRMIEPLDIAEYYLEGRKEYRTTGRSHHYVMLEKWFGMESILIEKERCKKRDLSDLLTFDSCFWAEVEDSLIVINQLNTTVGMRDDVREVLTRKLVEFEGYVWEIITKREVSPEIFLEESSFMKWWKEYKKIKGFNSSYLTEFMNTRKYESYGKSQ
Turning to B3, the binding entry in assay [2], in assay [3], in assay [4] and in assay [5] was “no binding” in each case.

B4: A. thaliana EDS1, full length, in pDEST-GADT7 (AD) (protein, UniProt Q9SU72 1-623)
chain: MAFEALTGINGDLITRSWSASKQAYLTERYHKEEAGAVVIFAFQPSFSEKDFFDPDNKSSFGEIKLNRVQFPCMRKIGKGDVATVNEAFLKNLEAIIDPRTSFQASVEMAVRSRKQIVFTGHSSGGATAILATVWYLEKYFIRNPNVYLEPRCVTFGAPLVGDSIFSHALGREKWSRFFVNFVSRFDIVPRIMLARKASVEETLPHVLAQLDPRKSSVQESEQRITEFYTRVMRDTSTVANQAVCELTGSAEAFLETLSSFLELSPYRPAGTFVFSTEKRLVAVNNSDAILQMLFYTSQASDEQEWSLIPFRSIRDHHSYEELVQSMGKKLFNHLDGENSIESTLNDLGVSTRGRQYVQAALEEEKKRVENQKKIIQVIEQERFLKKLAWIEDEYKPKCQAHKNGYYDSFKVSNEENDFKANVKRAELAGVFDEVLGLMKKCQLPDEFEGDIDWIKLATRYRRLVEPLDIANYHRHLKNEDTGPYMKRGRPTRYIYAQRGYEHYILKPNGMIAEDVFWNKVNGLNLGLQLEEIQETLKNSGSECGSCFWAEVEELKGKPYEEVEVRVKTLEGMLGEWITDGEVDDKEIFLEGSTFRKWWITLPKNHKSHSPLRDYMMDEITDT
Regarding B4, the binding result is reported as “binds” in assay [2]; “binds” in assay [3]; “binds” in assay [4]; “no binding” in assay [5]; “binds” in assay [6].

B5: HA-EDS1 (full-length A. thaliana EDS1 with 3xHA, pB7WG2.0) (protein, UniProt Q9SU72 1-623)
chain: MAFEALTGINGDLITRSWSASKQAYLTERYHKEEAGAVVIFAFQPSFSEKDFFDPDNKSSFGEIKLNRVQFPCMRKIGKGDVATVNEAFLKNLEAIIDPRTSFQASVEMAVRSRKQIVFTGHSSGGATAILATVWYLEKYFIRNPNVYLEPRCVTFGAPLVGDSIFSHALGREKWSRFFVNFVSRFDIVPRIMLARKASVEETLPHVLAQLDPRKSSVQESEQRITEFYTRVMRDTSTVANQAVCELTGSAEAFLETLSSFLELSPYRPAGTFVFSTEKRLVAVNNSDAILQMLFYTSQASDEQEWSLIPFRSIRDHHSYEELVQSMGKKLFNHLDGENSIESTLNDLGVSTRGRQYVQAALEEEKKRVENQKKIIQVIEQERFLKKLAWIEDEYKPKCQAHKNGYYDSFKVSNEENDFKANVKRAELAGVFDEVLGLMKKCQLPDEFEGDIDWIKLATRYRRLVEPLDIANYHRHLKNEDTGPYMKRGRPTRYIYAQRGYEHYILKPNGMIAEDVFWNKVNGLNLGLQLEEIQETLKNSGSECGSCFWAEVEELKGKPYEEVEVRVKTLEGMLGEWITDGEVDDKEIFLEGSTFRKWWITLPKNHKSHSPLRDYMMDEITDT
B5: the binding result in assay [7] and in assay [8] was “binds” each time.

B6: EDS1-mCherry (protein, UniProt Q9SU72 1-623)
chain: MAFEALTGINGDLITRSWSASKQAYLTERYHKEEAGAVVIFAFQPSFSEKDFFDPDNKSSFGEIKLNRVQFPCMRKIGKGDVATVNEAFLKNLEAIIDPRTSFQASVEMAVRSRKQIVFTGHSSGGATAILATVWYLEKYFIRNPNVYLEPRCVTFGAPLVGDSIFSHALGREKWSRFFVNFVSRFDIVPRIMLARKASVEETLPHVLAQLDPRKSSVQESEQRITEFYTRVMRDTSTVANQAVCELTGSAEAFLETLSSFLELSPYRPAGTFVFSTEKRLVAVNNSDAILQMLFYTSQASDEQEWSLIPFRSIRDHHSYEELVQSMGKKLFNHLDGENSIESTLNDLGVSTRGRQYVQAALEEEKKRVENQKKIIQVIEQERFLKKLAWIEDEYKPKCQAHKNGYYDSFKVSNEENDFKANVKRAELAGVFDEVLGLMKKCQLPDEFEGDIDWIKLATRYRRLVEPLDIANYHRHLKNEDTGPYMKRGRPTRYIYAQRGYEHYILKPNGMIAEDVFWNKVNGLNLGLQLEEIQETLKNSGSECGSCFWAEVEELKGKPYEEVEVRVKTLEGMLGEWITDGEVDDKEIFLEGSTFRKWWITLPKNHKSHSPLRDYMMDEITDT
Take B6: the binding result in assay [1] is “binds”.
